# In PubChem BioAssay AID540276 (National Center for Advancing Translational Sciences (NCATS), 2011):
# The whole screen tested about 300,000 compounds, of which about 5,400 (1.8%) were called active. The shares of active, inactive and inconclusive entries below differ from those in the screen. The call rests on the fitted dose curve; tested in HEK293 cells. A potency beside an inconclusive call is a rough fit, not a confirmed value.
# Experiment: qHTS for inhibitors of binding or entry into cells for Marburg Virus
# Conditions: Marburg virus pseudotyped entry inhibition, cell reporter; series mostly up to 37.8 µM
# Potency means the concentration at half of the fitted maximal effect.
row,Compound,Potency
1,COC(=O)c1sc2nc(CSc3nc4ccc(C)cc4[nH]3)[nH]c(=O)c2c1C,inactive
2,COc1ccccc1NC(=S)NNC(=O)c1cc(C)nn1C,"inconclusive: 0.0891 µM [activator, full curve, poor fit]"
3,O=C(COc1ccc(Cl)cc1)Nc1nc(-c2cccs2)cs1,inactive
4,COc1cc(C2NC(=O)NC(C)=C2C(=O)OC(C)C)ccc1OC(=O)c1ccco1 (stereo not given),"inconclusive: 16.4 µM [activator, partial curve, poor fit]"
5,Cc1csc(SCC(=O)Nc2ccccc2[N+](=O)[O-])n1,"inconclusive: 6.31 µM [activator, single point]"
6,Cc1nc(NC(=O)c2csc3ccccc23)sc1C,"inconclusive: 29.1 µM [inhibitor, single point]"
7,CNCc1cc(Br)c(OCC(=O)Nc2ccccc2OC)c(OC)c1,"inconclusive: 0.891 µM [inhibitor, partial curve, poor fit]"
8,Cc1cccc[n+]1C1C(c2ccccc2)C(C#N)=C(C(=C=[N-])C#N)NC1(O)C1CC1 (stereo not given),inactive
9,COc1ccc(S(=O)(=O)N2CCN(c3ccccc3)CC2)cc1C(=O)N1CCCC1,inactive
10,O=C(COC(=O)c1ccc(S(=O)(=O)NCc2ccco2)cc1)Nc1ncc(Cl)cc1Cl,inactive
11,Cc1ccc(S(=O)(=O)N2CCCC(C(=O)NCc3ccccc3F)C2)cc1 (stereo not given),inactive
12,CC(OC(=O)CCCN=C1NS(=O)(=O)c2ccccc21)C(=O)Nc1ccccc1[N+](=O)[O-] (stereo not given),"inconclusive: 5.62 µM [activator, single point]"
13,CCNC(=S)N/N=C(\C)c1ccc2c(c1)OCCO2,inactive
14,Cc1nc(CCNC(=O)CC2C(=O)NCCN2Cc2ccc(F)cc2)sc1C (stereo not given),inactive
15,CCN(CC)c1ccc(C(=O)Nc2ccccc2)cc1[N+](=O)[O-],"inconclusive: 35.5 µM [inhibitor, single point]"
16,COc1cccc(CC2(CO)CCCN(Cc3cn[nH]c3-c3ccccc3)C2)c1 (stereo not given),"inconclusive: 31.6 µM [inhibitor, single point]"
17,O=C(Nc1nc2ccccc2s1)c1cccc(S(=O)(=O)N2CCc3ccccc32)c1,"inconclusive: 22.4 µM [inhibitor, single point]"
18,Cc1ccc(NC(=O)CC(=O)Nc2ccc(C)c(C)c2)cc1C,inactive
19,CC(=O)N(CC(=O)N(CC(=O)O)c1ccc(Cl)cc1)c1ccc(Cl)cc1,"inconclusive: 35.5 µM [activator, single point]"
20,Cc1cc(-c2nnc(SCC(=O)Nc3ccc(Cl)cn3)n2N)n[nH]1,"inconclusive: 35.5 µM [activator, single point]"
21,CCOC(=O)c1sc(Nc2nc3c(OC)cccc3s2)nc1C,inactive
22,Cc1c(CN2CCC(CO)(CCOc3ccccc3)CC2)c(=O)n(-c2ccccc2)n1C,"inconclusive: 6.31 µM [inhibitor, single point]"
23,COC(=O)c1ccc(NS(=O)(=O)N(C)C)cc1,inactive

# Some values from above:
# Entry of O=C(COc1ccc(Cl)cc1)Nc1nc(-c2cccs2)cs1 under Potency: inactive
# Entry of Cc1nc(CCNC(=O)CC2C(=O)NCCN2Cc2ccc(F)cc2)sc1C (stereo not given) under Potency: inactive

# (listing goes on)

row,Compound,Potency
1,CC(C)n1cc([C@@H]2C[C@H]3CN(Cc4cccc(Cl)c4)C(=O)[C@]34CCCN24)cn1,"inconclusive: 35.5 µM [inhibitor, single point]"
2,NC(=S)N/N=C/c1ccc(-c2cc(Cl)ccc2Cl)o1,"inconclusive: 9.2 µM [inhibitor, partial curve, poor fit]"
3,Cc1ccc(CNC(=O)CCSCc2cnn(-c3ccccc3)c2-n2cccc2)cc1,"inconclusive: 35.5 µM [inhibitor, single point]"
4,Cc1cc(C(=O)COC(=O)/C=C/c2cccc(Br)c2)c(C)n1C,"inconclusive: 3.55 µM [inhibitor, single point]"
5,CCOC(=O)c1ccc(N=c2scc(C)n2CC)cc1,active: 5.62 µM
6,COc1ccc(C(CNC(=O)c2cc(S(=O)(=O)N3CCCCC3)ccc2C)N2CCCC2)cc1 (stereo not given),"inconclusive: 1.78 µM [activator, partial curve, poor fit]"
7,CN(C)c1ccc(C(=O)OCc2ccc(Br)cc2)cc1,"inconclusive: 8.91 µM [activator, partial curve, poor fit]"
8,COc1ccc2c(c1)CCc1c(C(=O)Nc3ccn(Cc4ccc(C)cc4)n3)noc1-2,"inconclusive: 32.6 µM [inhibitor, single point]"
9,CCOC(=O)c1c(-n2c(C)cc(C=C3C(=O)NC(=O)NC3=O)c2C)sc2c1CCCC2,"inconclusive: 23.1 µM [inhibitor, single point]"
10,COc1ccc(NC(=O)c2ccccc2-c2ccccc2)cc1,"inconclusive: 35.5 µM [inhibitor, single point]"
11,Cn1c(C(C#N)C(=O)Cc2cccc3ccccc23)nc2ccccc21 (stereo not given),inactive
12,O=S(=O)(NCCSc1ccccn1)c1ccc(Br)cc1,"inconclusive: 1.12 µM [activator, full curve, poor fit]"
13,COCCCN=C1NN=C(c2cc(C)n(Cc3ccccc3Cl)c2C)CS1,"inconclusive: 2.82 µM [inhibitor, partial curve, poor fit]"
14,COc1ccc([C@@H]2C(C#N)=C(C)NC3=C2C(=O)c2ccccc23)cc1,inactive
15,Cc1ccc(-n2nnnc2SCC(=O)c2c(N)n(CC(C)C)c(=O)n(C)c2=O)cc1,inactive
16,Cc1ccc(-c2ccc(=O)n(CC(=O)Nc3cccc(C(=O)N4CCN(C)CC4)c3)n2)cc1,"inconclusive: 0.58 µM [activator, single point]"
17,Cc1cccc(/C(N)=N/OC(=O)COc2ccccc2Cl)c1,"inconclusive: 5.01 µM [activator, single point]"
18,Cc1ccc(/C=N/NC(=O)CSc2nnc(-c3ccc(Cl)cc3)n2-c2ccc(Cl)cc2)o1,"inconclusive: 7.08 µM [inhibitor, partial curve, poor fit]"
19,C(=N\N=C\c1ccccn1)/c1ccccn1,inactive
20,CCn1ncc(/C=N\NC(=O)c2ccc3c(c2)c(C)c(C)n3Cc2ccccc2)c1C,"inconclusive: 15.8 µM [inhibitor, single point]"
21,CCCC(=O)Nc1nc(CC(=O)OCC)cs1,inactive
22,Nc1ccc2c3c(cccc13)CC2,"inconclusive: 11.6 µM [inhibitor, partial curve, poor fit]"
